{
  "source": "patent US20230212510A1",
  "about": "“METHODS FOR ORGANOIDS PRODUCTION” (CITY OF HOPE, priority 2020, published 2023)",
  "system": "HMEC organoids in microcontainers",
  "assay": "Inhibitor treatment of contractile mammary organoids, contractions counted by time-lapse microscopy",
  "assay_type": "cell-based, human",
  "settings": "50 μM ML-7; FIG. 5I",
  "description": "Contraction temporal analysis: Organoid contractions were quantified either by hand or by brightness change analysis, as indicated. For brightness change analysis, time-lapse movies were taken, and the time-derivative of the whole-field image brightness was calculated. Local maxima in the time-derivative were interpreted as contractions and spot-checked by eye.\nContractile function implies the presence of contractility-associated structural proteins. […] The association between contractility and ASMA expression was tested with inhibitor experiments. Contractile organoids were treated with either latrunculin B or jasplakinolide, inhibitors of cytoskeleton dynamics that either promote or inhibit actin polymerization, […]. […] Next, organoids were treated with ML-7, an inhibitor of the smooth muscle myosin light-chain kinase that interacts with ASMA.",
  "note": "Some of these results come from one statement about several compounds together. For at least one compound, name, drawing or mass did not settle the structure.",
  "data": [
    {"smiles": "O=S(=O)(c1cccc2c(I)cccc12)N1CCCNCC1", "note": "[ML-7]", "values": [
      {"measurement": "inhibition of contractions", "result": "> 90", "unit": "%"}
    ]}
  ]
}
